± gives the standard deviation of the averaged measurements. This is a selection; strong and weak results do not stand in their true shares. Most entries show no effect beyond the scatter of the controls.

Sequences of proteins named here, by UniProt entry; tags and fusion partners are left off. A change or cut given only in a name is not applied to a line headed by its entry.
UniProt Q96KA5: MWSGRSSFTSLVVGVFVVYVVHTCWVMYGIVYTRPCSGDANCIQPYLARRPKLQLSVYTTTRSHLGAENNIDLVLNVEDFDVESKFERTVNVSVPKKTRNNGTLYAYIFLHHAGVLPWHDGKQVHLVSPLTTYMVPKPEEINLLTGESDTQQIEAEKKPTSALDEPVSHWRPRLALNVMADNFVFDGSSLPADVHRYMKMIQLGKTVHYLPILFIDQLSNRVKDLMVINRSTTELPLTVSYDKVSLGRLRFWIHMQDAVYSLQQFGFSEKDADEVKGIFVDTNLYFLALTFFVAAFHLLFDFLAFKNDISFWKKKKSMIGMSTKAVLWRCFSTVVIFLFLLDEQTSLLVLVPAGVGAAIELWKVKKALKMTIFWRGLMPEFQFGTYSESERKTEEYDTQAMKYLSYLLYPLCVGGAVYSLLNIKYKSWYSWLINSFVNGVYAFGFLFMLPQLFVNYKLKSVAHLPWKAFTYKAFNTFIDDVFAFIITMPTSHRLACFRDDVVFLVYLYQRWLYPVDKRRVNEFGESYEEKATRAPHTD
UniProt Q96DT7: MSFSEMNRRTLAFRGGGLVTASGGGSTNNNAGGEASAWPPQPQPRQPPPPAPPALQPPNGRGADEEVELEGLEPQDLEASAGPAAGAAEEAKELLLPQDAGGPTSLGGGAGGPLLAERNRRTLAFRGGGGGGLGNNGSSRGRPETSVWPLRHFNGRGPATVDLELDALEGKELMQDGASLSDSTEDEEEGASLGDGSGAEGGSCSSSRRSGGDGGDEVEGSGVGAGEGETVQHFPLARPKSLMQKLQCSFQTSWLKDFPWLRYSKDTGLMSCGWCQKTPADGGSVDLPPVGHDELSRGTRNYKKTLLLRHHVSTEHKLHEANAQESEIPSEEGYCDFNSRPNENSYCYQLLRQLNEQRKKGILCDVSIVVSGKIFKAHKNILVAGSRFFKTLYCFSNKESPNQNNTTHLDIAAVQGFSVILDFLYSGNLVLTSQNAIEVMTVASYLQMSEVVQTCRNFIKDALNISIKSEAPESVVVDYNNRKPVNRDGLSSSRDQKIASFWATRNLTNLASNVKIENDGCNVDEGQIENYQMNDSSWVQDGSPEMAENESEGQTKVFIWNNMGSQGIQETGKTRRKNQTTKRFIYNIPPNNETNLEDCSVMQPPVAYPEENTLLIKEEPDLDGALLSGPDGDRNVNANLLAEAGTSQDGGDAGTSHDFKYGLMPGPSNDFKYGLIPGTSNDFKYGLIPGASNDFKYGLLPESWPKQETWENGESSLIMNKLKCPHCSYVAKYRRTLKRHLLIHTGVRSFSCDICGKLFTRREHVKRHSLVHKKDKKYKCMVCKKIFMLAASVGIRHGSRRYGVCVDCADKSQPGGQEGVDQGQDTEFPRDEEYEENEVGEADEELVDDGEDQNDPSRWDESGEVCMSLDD
UniProt Q96NL6: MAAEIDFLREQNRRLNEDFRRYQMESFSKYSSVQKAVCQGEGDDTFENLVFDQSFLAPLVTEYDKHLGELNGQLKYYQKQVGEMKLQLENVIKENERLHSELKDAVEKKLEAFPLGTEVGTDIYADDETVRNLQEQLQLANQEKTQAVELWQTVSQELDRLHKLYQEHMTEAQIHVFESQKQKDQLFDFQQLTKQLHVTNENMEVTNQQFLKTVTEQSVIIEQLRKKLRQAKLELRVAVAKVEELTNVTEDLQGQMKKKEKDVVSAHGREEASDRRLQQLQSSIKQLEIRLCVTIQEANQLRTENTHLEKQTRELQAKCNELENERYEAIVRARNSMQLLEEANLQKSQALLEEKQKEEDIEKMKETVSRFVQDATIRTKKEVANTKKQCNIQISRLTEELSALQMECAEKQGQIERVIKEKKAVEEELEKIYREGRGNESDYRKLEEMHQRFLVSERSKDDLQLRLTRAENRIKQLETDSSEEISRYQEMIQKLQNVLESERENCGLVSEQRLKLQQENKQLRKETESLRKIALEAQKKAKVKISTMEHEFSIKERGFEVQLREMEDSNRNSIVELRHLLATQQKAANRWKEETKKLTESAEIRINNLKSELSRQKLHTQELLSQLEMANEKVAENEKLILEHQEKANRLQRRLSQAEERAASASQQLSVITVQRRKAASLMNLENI
UniProt Q96Q05, whole entry: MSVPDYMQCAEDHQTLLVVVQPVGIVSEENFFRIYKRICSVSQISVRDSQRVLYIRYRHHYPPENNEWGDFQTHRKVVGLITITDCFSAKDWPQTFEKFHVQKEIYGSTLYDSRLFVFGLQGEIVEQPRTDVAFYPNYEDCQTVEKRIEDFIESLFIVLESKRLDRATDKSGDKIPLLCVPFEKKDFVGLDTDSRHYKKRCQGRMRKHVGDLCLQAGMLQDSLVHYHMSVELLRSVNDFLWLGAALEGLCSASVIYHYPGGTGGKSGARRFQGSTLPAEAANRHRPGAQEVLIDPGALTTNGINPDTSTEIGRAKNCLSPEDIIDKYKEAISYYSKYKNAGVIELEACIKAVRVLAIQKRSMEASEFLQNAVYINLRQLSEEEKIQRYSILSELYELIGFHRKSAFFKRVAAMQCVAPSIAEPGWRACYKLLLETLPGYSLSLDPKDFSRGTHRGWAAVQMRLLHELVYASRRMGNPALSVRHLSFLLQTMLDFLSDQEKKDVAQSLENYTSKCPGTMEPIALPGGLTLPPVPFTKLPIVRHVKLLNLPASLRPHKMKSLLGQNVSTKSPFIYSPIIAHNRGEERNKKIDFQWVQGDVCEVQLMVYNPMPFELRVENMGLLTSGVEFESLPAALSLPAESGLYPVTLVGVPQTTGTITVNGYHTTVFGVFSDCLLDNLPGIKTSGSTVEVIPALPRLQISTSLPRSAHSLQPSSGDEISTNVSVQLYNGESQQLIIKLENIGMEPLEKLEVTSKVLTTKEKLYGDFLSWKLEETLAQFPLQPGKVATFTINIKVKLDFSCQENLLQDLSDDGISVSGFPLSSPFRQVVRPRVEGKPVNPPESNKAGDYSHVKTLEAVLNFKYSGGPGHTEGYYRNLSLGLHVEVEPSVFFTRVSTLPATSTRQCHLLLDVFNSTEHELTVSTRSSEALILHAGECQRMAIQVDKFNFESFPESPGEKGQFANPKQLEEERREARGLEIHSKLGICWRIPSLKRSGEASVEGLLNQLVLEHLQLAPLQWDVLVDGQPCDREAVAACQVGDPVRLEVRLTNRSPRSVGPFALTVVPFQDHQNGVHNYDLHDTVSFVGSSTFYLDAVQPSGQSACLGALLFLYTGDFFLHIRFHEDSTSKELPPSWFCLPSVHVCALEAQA
UniProt Q96IZ7: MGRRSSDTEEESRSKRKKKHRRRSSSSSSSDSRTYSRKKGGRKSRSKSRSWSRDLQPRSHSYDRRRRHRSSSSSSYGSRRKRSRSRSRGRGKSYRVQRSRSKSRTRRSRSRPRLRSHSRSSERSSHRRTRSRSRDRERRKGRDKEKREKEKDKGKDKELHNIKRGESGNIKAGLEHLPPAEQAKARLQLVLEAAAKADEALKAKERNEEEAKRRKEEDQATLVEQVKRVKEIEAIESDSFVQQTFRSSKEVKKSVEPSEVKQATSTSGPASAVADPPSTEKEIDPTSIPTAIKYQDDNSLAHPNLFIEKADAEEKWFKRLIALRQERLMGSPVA
UniProt Q96DA2: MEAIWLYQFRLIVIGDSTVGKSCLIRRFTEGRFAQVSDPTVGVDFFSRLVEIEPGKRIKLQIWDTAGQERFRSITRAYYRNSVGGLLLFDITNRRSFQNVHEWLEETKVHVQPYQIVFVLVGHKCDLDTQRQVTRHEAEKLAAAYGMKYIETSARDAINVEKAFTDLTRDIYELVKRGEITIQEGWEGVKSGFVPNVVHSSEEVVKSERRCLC
UniProt Q96Q11: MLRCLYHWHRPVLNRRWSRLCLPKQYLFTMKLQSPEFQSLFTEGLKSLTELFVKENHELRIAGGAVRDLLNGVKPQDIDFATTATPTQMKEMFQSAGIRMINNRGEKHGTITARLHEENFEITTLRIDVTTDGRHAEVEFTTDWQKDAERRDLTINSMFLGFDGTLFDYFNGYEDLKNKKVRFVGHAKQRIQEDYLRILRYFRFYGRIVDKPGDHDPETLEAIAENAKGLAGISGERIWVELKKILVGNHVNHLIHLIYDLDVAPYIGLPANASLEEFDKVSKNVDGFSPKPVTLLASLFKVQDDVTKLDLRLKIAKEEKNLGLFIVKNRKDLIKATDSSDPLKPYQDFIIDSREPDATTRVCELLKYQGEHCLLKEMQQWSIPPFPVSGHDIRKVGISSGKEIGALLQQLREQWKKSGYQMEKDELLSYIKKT
UniProt Q96MX0: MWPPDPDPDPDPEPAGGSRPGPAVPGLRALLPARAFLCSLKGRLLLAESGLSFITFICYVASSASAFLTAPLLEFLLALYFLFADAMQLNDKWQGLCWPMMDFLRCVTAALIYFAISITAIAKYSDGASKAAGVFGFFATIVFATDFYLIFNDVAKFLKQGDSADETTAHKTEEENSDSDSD
UniProt Q96CS2: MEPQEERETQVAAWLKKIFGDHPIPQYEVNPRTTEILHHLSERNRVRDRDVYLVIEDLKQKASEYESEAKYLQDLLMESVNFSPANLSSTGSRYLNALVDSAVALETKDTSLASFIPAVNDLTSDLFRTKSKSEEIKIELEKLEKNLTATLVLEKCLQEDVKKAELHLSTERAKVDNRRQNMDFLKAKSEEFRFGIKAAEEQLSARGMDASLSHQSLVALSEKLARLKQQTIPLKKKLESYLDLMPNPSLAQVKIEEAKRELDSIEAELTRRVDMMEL
UniProt Q96DP5: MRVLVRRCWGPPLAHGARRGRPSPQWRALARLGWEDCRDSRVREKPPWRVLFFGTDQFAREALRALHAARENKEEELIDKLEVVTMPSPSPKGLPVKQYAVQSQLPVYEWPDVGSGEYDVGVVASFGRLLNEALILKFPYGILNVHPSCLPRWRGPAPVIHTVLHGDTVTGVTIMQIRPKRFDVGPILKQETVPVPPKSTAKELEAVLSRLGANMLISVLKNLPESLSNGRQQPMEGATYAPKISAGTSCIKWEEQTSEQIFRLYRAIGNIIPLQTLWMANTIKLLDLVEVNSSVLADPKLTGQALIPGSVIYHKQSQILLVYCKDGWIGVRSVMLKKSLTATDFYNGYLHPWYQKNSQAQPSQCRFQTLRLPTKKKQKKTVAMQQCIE
UniProt Q96RS6: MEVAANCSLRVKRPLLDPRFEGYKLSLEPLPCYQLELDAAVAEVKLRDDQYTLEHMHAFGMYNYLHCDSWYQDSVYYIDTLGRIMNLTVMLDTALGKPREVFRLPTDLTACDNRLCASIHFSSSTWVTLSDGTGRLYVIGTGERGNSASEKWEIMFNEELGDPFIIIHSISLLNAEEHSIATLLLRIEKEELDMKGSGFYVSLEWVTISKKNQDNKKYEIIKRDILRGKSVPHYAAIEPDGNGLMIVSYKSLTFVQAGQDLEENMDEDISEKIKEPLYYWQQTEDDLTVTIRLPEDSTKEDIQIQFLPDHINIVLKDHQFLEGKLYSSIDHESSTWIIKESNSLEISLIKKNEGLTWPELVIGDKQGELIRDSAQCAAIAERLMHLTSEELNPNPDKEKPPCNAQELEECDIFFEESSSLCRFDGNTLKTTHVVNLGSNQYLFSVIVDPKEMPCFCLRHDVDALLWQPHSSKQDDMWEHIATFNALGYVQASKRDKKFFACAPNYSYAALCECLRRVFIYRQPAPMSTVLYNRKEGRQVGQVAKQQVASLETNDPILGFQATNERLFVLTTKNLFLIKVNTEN
UniProt Q96BT7: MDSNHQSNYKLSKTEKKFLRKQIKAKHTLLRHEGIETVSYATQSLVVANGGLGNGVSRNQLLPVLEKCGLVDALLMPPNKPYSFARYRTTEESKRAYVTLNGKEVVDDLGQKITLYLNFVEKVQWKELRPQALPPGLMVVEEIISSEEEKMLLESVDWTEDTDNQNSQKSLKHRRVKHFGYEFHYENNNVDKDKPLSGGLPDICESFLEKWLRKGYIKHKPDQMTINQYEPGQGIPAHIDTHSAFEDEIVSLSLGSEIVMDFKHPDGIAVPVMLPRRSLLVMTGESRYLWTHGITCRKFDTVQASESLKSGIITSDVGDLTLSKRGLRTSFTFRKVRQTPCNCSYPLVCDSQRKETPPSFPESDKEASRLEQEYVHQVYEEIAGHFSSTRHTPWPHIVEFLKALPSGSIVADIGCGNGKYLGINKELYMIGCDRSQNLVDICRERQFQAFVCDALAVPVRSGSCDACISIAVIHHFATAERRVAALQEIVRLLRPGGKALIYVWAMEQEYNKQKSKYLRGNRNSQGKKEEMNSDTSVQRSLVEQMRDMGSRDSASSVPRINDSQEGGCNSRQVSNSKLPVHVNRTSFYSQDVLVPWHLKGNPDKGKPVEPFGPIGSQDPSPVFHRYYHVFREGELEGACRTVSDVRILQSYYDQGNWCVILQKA
UniProt Q96HR9: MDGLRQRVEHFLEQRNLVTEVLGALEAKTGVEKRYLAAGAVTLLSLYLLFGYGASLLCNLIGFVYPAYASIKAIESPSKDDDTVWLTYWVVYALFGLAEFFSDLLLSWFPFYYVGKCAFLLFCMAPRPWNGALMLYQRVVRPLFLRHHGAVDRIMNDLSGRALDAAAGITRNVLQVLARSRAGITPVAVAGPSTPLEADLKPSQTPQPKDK

Compound in this experiment: Nc1ncnc2c1ncn2[C@@H]1O[C@H](COP(=O)(O)OP(=O)(O)OP(=O)(O)O)[C@@H](O)[C@H]1O [adenosine triphosphate]
Briefly: NP40-soluble protein abundance relative to vehicle (solubility fold change) (ratio); higher = more soluble protein in presence of ATP. Conditions: concentration: 0.1mM. An outline of the steps:
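Jurkat crude lysate (Dounce-homogenised) was treated with eight concentrations from 0.1 to 10 mM for 10 min at room temperature, then 3 min at 37 °C. It was solubilised with 0.8% NP40 and benzonase (60 min, 4 °C) and ultracentrifuged, and the supernatant was TMT-labelled for LC-MS/MS. Intensities were vsn-normalised, and the value is the fold change against the NP40-processed vehicle per replicate, from three independent experiments.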
For UniProt Q96NC0, the NP40-soluble protein abundance was found to be 0.973 ± 0.027.
As for UniProt Q96JJ7, the figure is 1.03 ± 0.035; as for UniProt Q96KA5 and related entries, 1 ± 0.047; as for ZBTB10 (UniProt Q96DT7), 0.965 ± 0.072.
For NSL1 (UniProt Q96IY1), the NP40-soluble protein abundance worked out at 1.03 ± 0.051.
SCLT1 (UniProt Q96NL6): the NP40-soluble protein abundance was 1.05 ± 0.069.
Then “UniProt Q96Q05-3|Q96Q05 and related entries”, with 1.019 ± 0.0098; and UniProt Q96IZ7 and related entries, with 1.1 ± 0.035; and RAB39B (UniProt Q96DA2), with 1.1 ± 0.13.
As to “UniProt Q96Q89-3|Q96Q89 and related entries”, the NP40-soluble protein abundance came to 1.04 ± 0.015.
As for UniProt Q96Q11 and related entries, the figure is 1 ± 0.052; as for UniProt Q96MX0 and related entries, 0.845 ± 0.1.
Then UniProt Q96CS2, with 0.93 ± 0.17; and UniProt Q96EP0 and related entries, with 1.05 ± 0.023.
Then MTFMT (UniProt Q96DP5), with 1.1 ± 0.025; and UniProt Q96IQ9-2|Q96IQ9, with 1 ± 0.063.
Regarding NUDCD1 (UniProt Q96RS6), the NP40-soluble protein abundance amounted to 1.06 ± 0.087.
Then PTCD3 (UniProt Q96EY7), with 0.98 ± 0.067.
Take UniProt Q96BT7 and related entries: the NP40-soluble protein abundance was 1.11 ± 0.056.
Then UniProt Q96GX9 and related entries, with 1.046 ± 0.0022; and UniProt Q96QG7 and related entries, with 1.09 ± 0.12.
In the case of LYSMD1 (UniProt Q96S90), the NP40-soluble protein abundance is 0.999 ± 0.045.
Regarding PRMT6 (UniProt Q96LA8), the NP40-soluble protein abundance was found to be 1.01 ± 0.086.
Consider ADO (UniProt Q96SZ5), for which the NP40-soluble protein abundance amounted to 0.986 ± 0.037.
As for UniProt Q96HA7 and related entries, the figure is 1 ± 0.065; as for REEP6 (UniProt Q96HR9), 0.931 ± 0.11.

The record behind these values is the supplement of paper PMC6411743.
